Assay results reported in article PMC4258940.
Results are given in words; binding and its absence hold for the method and conditions named. For some assays here: In cells and extracts the contact can be indirect. Some binding calls cover weakened binding; strength is not graded here.

Sequences of proteins named here, by UniProt entry; tags and fusion partners are left off.
UniProt Q01094: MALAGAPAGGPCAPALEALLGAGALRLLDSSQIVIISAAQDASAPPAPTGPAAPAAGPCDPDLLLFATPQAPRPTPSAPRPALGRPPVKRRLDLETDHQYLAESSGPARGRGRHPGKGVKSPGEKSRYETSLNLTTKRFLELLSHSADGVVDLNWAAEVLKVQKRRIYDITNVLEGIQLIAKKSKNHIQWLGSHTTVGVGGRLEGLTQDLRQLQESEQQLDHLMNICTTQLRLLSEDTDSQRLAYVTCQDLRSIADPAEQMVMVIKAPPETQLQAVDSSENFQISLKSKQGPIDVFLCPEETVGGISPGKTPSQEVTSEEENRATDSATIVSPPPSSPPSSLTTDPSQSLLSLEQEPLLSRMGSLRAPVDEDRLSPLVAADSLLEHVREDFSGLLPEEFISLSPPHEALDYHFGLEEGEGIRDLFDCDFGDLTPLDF
UniProt P33527: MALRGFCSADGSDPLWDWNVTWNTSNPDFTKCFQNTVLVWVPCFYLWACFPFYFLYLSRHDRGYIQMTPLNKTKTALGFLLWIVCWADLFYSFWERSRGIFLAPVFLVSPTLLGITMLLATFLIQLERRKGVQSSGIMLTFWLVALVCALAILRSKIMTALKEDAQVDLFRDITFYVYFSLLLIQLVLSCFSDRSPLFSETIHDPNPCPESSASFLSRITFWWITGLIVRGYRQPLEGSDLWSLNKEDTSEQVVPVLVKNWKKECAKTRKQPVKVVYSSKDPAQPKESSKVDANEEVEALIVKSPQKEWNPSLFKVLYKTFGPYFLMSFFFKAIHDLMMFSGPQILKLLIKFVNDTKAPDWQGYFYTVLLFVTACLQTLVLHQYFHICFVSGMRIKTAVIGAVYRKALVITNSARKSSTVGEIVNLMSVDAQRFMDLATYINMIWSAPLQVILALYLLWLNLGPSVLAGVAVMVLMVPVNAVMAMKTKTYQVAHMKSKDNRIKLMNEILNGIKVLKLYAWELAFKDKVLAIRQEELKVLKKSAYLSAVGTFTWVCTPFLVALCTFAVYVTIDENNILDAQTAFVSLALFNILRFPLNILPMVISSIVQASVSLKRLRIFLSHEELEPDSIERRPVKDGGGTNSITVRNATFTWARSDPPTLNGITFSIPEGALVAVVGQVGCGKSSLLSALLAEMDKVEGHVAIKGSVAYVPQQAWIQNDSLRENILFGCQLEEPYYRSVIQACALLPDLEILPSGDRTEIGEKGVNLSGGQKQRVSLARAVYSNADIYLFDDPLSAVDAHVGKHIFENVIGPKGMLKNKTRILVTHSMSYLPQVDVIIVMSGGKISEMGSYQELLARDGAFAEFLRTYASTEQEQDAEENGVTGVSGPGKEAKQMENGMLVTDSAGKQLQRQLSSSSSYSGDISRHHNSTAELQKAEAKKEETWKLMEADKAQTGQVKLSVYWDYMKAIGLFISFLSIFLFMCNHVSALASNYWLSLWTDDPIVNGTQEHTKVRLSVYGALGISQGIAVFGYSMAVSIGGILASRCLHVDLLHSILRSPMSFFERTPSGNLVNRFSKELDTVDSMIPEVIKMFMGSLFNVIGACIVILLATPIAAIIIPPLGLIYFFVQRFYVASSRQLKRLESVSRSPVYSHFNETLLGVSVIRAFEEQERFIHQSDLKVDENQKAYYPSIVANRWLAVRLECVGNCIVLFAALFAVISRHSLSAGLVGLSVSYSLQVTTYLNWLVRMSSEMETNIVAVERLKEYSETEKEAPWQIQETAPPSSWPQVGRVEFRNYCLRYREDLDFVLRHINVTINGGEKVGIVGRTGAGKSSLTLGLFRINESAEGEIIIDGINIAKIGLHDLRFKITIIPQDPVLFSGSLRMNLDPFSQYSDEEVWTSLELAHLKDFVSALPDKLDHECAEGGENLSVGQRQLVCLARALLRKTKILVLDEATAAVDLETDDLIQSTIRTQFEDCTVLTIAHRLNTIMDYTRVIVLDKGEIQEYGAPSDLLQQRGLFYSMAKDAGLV

Assays:
GST-E2F1 = GST-E2F1 (UniProt Q01094); test: pull-down; in vitro GST pull-down using purified proteins: His-MRP with GST-E2F1 or GST; both purified
[1] = target: E2F1 in lysate of SGC7901/DDP gastric carcinoma cells (human (endogenous in SGC7901/DDP)) (UniProt Q01094); test: co-IP; reciprocal immunoprecipitation and western blot in lysates of SGC7901/DDP cells stably expressing E2F1; lysis buffer 100 mmol/L NaCl, 10 mmol/L Tris-HCl pH 7.6, 1 mmol/L EDTA, 1% NP-40

binding (GST-E2F1)	binding [1]	Substance
binds		6xHis-tagged MRP (from UniProt P33527 1-1531)
	binds	MRP, endogenous in SGC7901/DDP gastric carcinoma cells (from UniProt P33527 1-1531)
